Some of these results come from one statement about several compounds together.
Test system: rat cortical neurons
Experiment: Mitochondrial motility assay in rat cortical neurons
Type: cell-based
Conditions: 10 μM, two experiments (week 1 and week 2)

With `CCCCCCCCCCCCCC(=O)O[C@@H]1[C@@H](C)[C@@]2(O)[C@@H](C=C(CO)C[C@]3(O)C(=O)C(C)=C[C@@H]23)[C@@H]2C(C)(C)[C@]12OC(C)=O` [BRD-K68552125, 12-O-Tetradecanoylphorbol-13-acetate] the “integrated distance traveled for each motile mitochondrion, z-score” value was over 3.

Source: patent publication US20230255970A1, “COMPOSITIONS AND METHODS FOR TREATING PROLIFERATIVE DISEASES” (The Broad Institute, Inc., priority 2020, published 2023)
